According to PMC11953741:

Molecular target: T1, Dsn1-6His-3Flag (S. cerevisiae) (UniProt P40568)
T1 sequence: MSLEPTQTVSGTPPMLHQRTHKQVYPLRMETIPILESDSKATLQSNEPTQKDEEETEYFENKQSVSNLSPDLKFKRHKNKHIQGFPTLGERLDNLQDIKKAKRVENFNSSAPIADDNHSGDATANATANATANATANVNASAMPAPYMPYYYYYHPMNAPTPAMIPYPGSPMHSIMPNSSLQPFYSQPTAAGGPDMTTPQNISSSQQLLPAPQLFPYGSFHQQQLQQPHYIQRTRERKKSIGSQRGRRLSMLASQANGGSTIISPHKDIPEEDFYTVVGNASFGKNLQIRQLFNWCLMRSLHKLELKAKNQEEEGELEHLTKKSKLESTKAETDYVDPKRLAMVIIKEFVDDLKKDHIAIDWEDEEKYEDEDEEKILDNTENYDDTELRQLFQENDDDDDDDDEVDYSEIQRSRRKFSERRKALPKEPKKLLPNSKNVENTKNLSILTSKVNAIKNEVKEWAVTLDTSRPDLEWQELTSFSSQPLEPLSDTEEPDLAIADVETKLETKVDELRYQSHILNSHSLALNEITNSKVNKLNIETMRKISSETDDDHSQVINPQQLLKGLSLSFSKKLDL
Experiment: affinity purification with mass spectrometry; Flag immunoprecipitation of Dsn1-His-Flag from yeast extracts of NUF2-V5 and nuf2^Q21A-V5 strains, eluted in 0.2% RapiGest, trypsin digest, LC-MS/MS

B1: Mps1 kinase (enzyme, UniProt P54199 1-764)
chain: MSTNSFHDYVDLKSRTNTRQFSDDEEFTTPPKLSNFGSALLSHTEKTSASEILSSHNNDKIANRLEEMDRSSSRSHPPPSMGNLTSGHTSTSSHSTLFGRYLRNNHQTSMTTMNTSDIEINVGNSLDKSFERIRNLRQNMKEDITAKYAERRSKRFLISNRTTKLGPAKRAMTLTNIFDEDVPNSPNQPINARETVELPLEDSHQTNFKETKRNTDYDSIDFGDLNPIQYIKKHNLPTSDLPLISQIYFDKQREENRQAALRKHSSRELLYKSRSSSSSLSSNNLLANKDNSITSNNGSQPRRKVSTGSSSSKSSIEIRRALKENIDTSNNSNFNSPIHKIYKGISRNKDSDSEKREVLRNISINANHADNLLQQENKRLKRSLDDAITNENINSKNLEVFYHRPAPKPPVTKKVEIVEPAKSASLSNNRNIITVNDSQYEKIELLGRGGSSRVYKVKGSGNRVYALKRVSFDAFDDSSIDGFKGEIELLEKLKDQKRVIQLLDYEMGDGLLYLIMECGDHDLSQILNQRSGMPLDFNFVRFYTKEMLLCIKVVHDAGIVHSDLKPANFVLVKGILKIIDFGIANAVPEHTVNIYRETQIGTPNYMAPEALVAMNYTQNSENQHEGNKWKVGRPSDMWSCGCIIYQMIYGKPPYGSFQGQNRLLAIMNPDVKIPFPEHTSNNEKIPKSAIELMKACLYRNPDKRWTVDKVLSSTFLQPFMISGSIMEDLIRNAVRYGSEKPHISQDDLNDVVDTVLRKFADYKI
binding: binds

No constants are given. Whether binding was seen depends on the method and setting. In cells and extracts the contact can be indirect. These calls come from enrichment with a bait or labelling near it, and not all partners need be listed. Where a sequence is shown, tags or fusion partners need not be part of it.
